Test results from PubChem BioAssay AID330 (DTP/NCI, 2004).
The list shows only some results of the screen, not a fair sample: it is rich in T/C values a quarter to a half above the control, in often repeated tests (any T/C) and in doses without a T/C. Other doses and runs of a compound stand elsewhere. T/C is the treated group as % of the vehicle group. Some entries give survivors of the animals treated and no T/C: the source files T/C as zero there, which appears to mark a toxic dose or a test without result, not a measured value. Some survivor counts are full or nearly so, which does not show that the dose was tolerated: the source hardly ever lists a survival T/C far under the control, and the zero likely stands for such cases as well. Counts of survivors are from the toxicity check (mostly the fifth day) where no day follows; animals may have died later. Schedules are NCI's codes, taken here to give the interval after Q, in days (D) or hours (H), and the number of doses after X. Some entries were tested several times; the values are given in rising order. For survival time, this PubChem deposit counts one and a half times the control or more as active, and values a quarter to a half above the control carry no call in these data; other NCI protocols may use other cut-offs. Some T/C values carry the count of animals alive at the toxicity check (mostly the fifth day); without a count, all were alive then.

Tested on: P388 leukemia ip, CD2F1 mice, survival T/C
Experiment: NCI In Vivo Anticancer Drug Screen. Data for tumor model P388 Leukemia (intraperitoneal) in CD2F1 (CDF1) mice
Conditions: T/C endpoint: median survival time, higher T/C = longer survival
[1] = dose: 60.0 mg/kg/injection, schedule: Q01DX005 (ip), vehicle: Klucel (hydroxypropylcellulose) (HPC)
[2] = dose: 120.0 mg/kg/injection, schedule: Q01DX005 (ip), vehicle: Klucel (hydroxypropylcellulose) (HPC)
[3] = dose: 240.0 mg/kg/injection, schedule: Q01DX005 (ip), vehicle: Klucel (hydroxypropylcellulose) (HPC)
[4] = dose: 200.0 mg/kg/injection, schedule: Q01DX009 (ip), vehicle: saline
[5] = dose: 400.0 mg/kg/injection, schedule: Q01DX009 (ip), vehicle: saline
[6] = dose: 200.0 mg/kg/injection, schedule: Q01DX005 (ip), vehicle: saline
[7] = dose: 120.0 mg/kg/injection, schedule: Q01DX005 (ip), vehicle: saline with Tween-80
[8] = dose: 240.0 mg/kg/injection, schedule: Q01DX005 (ip), vehicle: saline with Tween-80
[9] = dose: 50.0 mg/kg/injection, schedule: Q01DX009 (ip), vehicle: saline
[10] = dose: 100.0 mg/kg/injection, schedule: Q01DX009 (ip), vehicle: saline
[11] = dose: 200.0 mg/kg/injection, schedule: Q01DX009 (ip), vehicle: saline with Tween-80
[12] = dose: 25.0 mg/kg/injection, schedule: Q01DX009 (ip), vehicle: saline

Cc1[nH]c2c(ccc3ccccc32)c(=O)c1N=Nc1ccc(C(=N)N)cc1
T/C (dose: 50.0 mg/kg/injection, schedule: Q01DX005 (ip), vehicle: Klucel + Tween-80): 142 % of control
T/C (dose: 100.0 mg/kg/injection, schedule: Q01DX005 (ip), vehicle: Klucel + Tween-80): 126 [5 of 6 alive] and 135 % of control
T/C (dose: 200.0 mg/kg/injection, schedule: Q01DX005 (ip), vehicle: Klucel + Tween-80): 135 % of control

CN(C)c1ccc2[nH]cc(C(=O)O)c(=O)c2c1
survivor count [1]: 3 of 6
survivor count [2]: 5 of 6
survivor count [3]: 3 of 6

O=c1ncccn1[C@@H]1O[C@H](CO)[C@H](O)C1O (some centres not stated)
T/C [4]: 125 and 134 % of control
T/C [5]: 137 % of control
T/C (dose: 600.0 mg/kg/injection, schedule: Q01DX009 (ip), vehicle: saline): 145 % of control

CCc1ccc[n+](CCC2CNc3ccccc32)c1 (configuration not stated)
survivor count (dose: 100.0 mg/kg/injection, schedule: Q01DX005 (ip), vehicle: saline): 0 of 5
survivor count [6]: 0 of 5

O=C(N/N=c1/sc2ccccc2n1Cc1ccccc1)c1ccncc1
survivor count (dose: 50.0 mg/kg/injection, schedule: Q01DX009 (ip), vehicle: Klucel (hydroxypropylcellulose) (HPC)): 6 of 6
survivor count (dose: 100.0 mg/kg/injection, schedule: Q01DX009 (ip), vehicle: Klucel (hydroxypropylcellulose) (HPC)): 6 of 6
survivor count (dose: 200.0 mg/kg/injection, schedule: Q01DX009 (ip), vehicle: Klucel (hydroxypropylcellulose) (HPC)): 2 of 6

O=C(O)Cn1nnc2ccccc21
survivor count [5]: 6 of 6

O=S1(=O)CS(=O)(=O)OCCCCCO1
survivor count (dose: 100.0 mg/kg/injection, schedule: Q01DX005 (ip), vehicle: Klucel (hydroxypropylcellulose) (HPC)): 0 of 6 and 2 of 6

FC(F)(F)c1cc(Nc2nc(-c3ccccc3)nc3c2C(=NCc2ccco2)OC3=NCc2ccco2)ccc1Cl
survivor count (dose: 60.0 mg/kg/injection, schedule: Q01DX005 (ip), vehicle: saline with Tween-80): 6 of 6
survivor count [7]: 6 of 6
survivor count [8]: 6 of 6

Clc1ccc(SSN2CCOCC2)cc1
survivor count [9]: 0 of 6
survivor count [10]: 0 of 6
survivor count [4]: 0 of 6

O=c1oc2ccccc2c(O)c1C1=N/C(=N/N=C/c2ccc(Cl)cc2)SC1
survivor count [2]: 6 of 6
survivor count [3]: 6 of 6

CCCC(=O)NC1=C(N2CC2)C(=O)C(NC(=O)CCC)=C(N2CC2)C1=O
T/C (dose: 0.29 mg/kg/injection, schedule: Q01DX009 (ip), vehicle: saline with Tween-80): 128 % of control
T/C (dose: 0.3 mg/kg/injection, schedule: Q01DX009 (ip), vehicle: saline with Tween-80): 125 % of control
T/C (dose: 0.66 mg/kg/injection, schedule: Q01DX009 (ip), vehicle: saline with Tween-80): 129 % of control
T/C (dose: 0.78 mg/kg/injection, schedule: Q01DX009 (ip), vehicle: saline with Tween-80): 136 % of control
T/C (dose: 1.25 mg/kg/injection, schedule: Q04DX003 (ip), vehicle: saline with Tween-80): 127 % of control
T/C (dose: 10.0 mg/kg/injection, schedule: Q04DX003 (ip), vehicle: saline with Tween-80): 145 % of control
survivor count (dose: 12.5 mg/kg/injection, schedule: Q01DX009 (ip), vehicle: saline with Tween-80): 6 of 6

NC(=O)C(Br)(Br)C(=O)c1nc(N)nc(N)n1
survivor count (dose: 200.0 mg/kg/injection, schedule: Q01DX005 (ip), vehicle: saline with Tween-80): 0 of 6

CC(/C=C/c1ccccc1)=Nc1ccccc1
T/C [11]: 126 % of control
survivor count (dose: 400.0 mg/kg/injection, schedule: Q01DX009 (ip), vehicle: saline with Tween-80): 2 of 6

CCN(CC)CCOC1CCCCC1
survivor count [6]: 0 of 6

CN(CO)c1nc(N(C)CO)nc(N(C)CO)n1
T/C [12]: 125 % of control
T/C (dose: 50.0 mg/kg/injection, schedule: Q01DX009 (ip), vehicle: saline with Tween-80): 139 % of control
T/C [9]: 148 % of control
T/C [10]: 132 % of control
survivor count [11]: 2 of 5
survivor count [4]: 2 of 6 and 5 of 6

CCCCc1c(O)c2c(=O)[nH]c(C)nc2oc1=O
survivor count [1]: 0 of 6
survivor count [2]: 0 of 6
survivor count [3]: 0 of 6

COc1ccc(C(Cl)(c2ccccc2)c2ccc(C(C)=O)cc2)cc1 (configuration not stated)
survivor count [7]: 6 of 6
survivor count [8]: 6 of 6

C=C(NC(=O)C(=C)NC(=O)c1csc(C2=NC3c4csc(n4)C4NC(=O)c5csc(n5)C(C(C)(O)C(C)O)NC(=O)C5CSC(=N5)/C(=C/C)NC(=O)C(C(C)O)NC(=O)c5csc(n5)C3(CC2)NC(=O)C(C)NC(=O)C(=C)NC(=O)C(=C)NC(=O)C(C(C)C)NC2C=Cc3c(C(C)O)cc(nc3C2O)C(=O)OC4C)n1)C(N)=O (configuration not stated)
T/C (dose: 6.25 mg/kg/injection, schedule: Q01DX009 (ip), vehicle: saline): 127 % of control
T/C (dose: 12.5 mg/kg/injection, schedule: Q01DX009 (ip), vehicle: saline): 134 % of control
T/C [12]: 131 and 138 % of control
T/C [9]: 126 % of control
T/C [10]: 149 % of control
T/C [4]: 142 % of control
